About 6,200 (1.8%) of roughly 340,000 compounds were called active. A call without a number means that no potency is given here. The shares of active, inactive and inconclusive entries below differ from those in the screen. The call rests on the fitted dose curve; in most records, active means well fitted activation curve with a large enough effect; inconclusive means small, poorly fitted or top-dose-only effect; inactive means no such curve, though single readings can be large or run the other way. Where the call is inconclusive, the potency comes from a doubtful curve fit.
experiment: A quantitative high throughput screen for small molecules that induce DNA re-replication in SW480 colon adenocarcinoma cells.; further: nearly all actives have a fitted effect of over 55% in size; details: Hoechst DNA content imaging, 48 h; series mostly up to 46.1 µM
Outline: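 Image-based DNA-content assay: after two days of treatment, nuclei were labelled with the DNA dye Hoechst and imaged, and hits were compounds raising the count of nuclei showing high fluorescence intensity.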
Potency means the concentration at half of the fitted maximal effect.

Row | SMILES | Potency
1 | O=c1cc(C(O)C[N+](=O)[O-])occ1OCc1ccccc1 (centres undefined) | inconclusive: 18.4 µM [activator, single point]
2 | CCOC(=O)c1ccc(S(=O)(=O)N2CCN(C3CC(=O)N(c4ccc(OC)cc4)C3=O)CC2)cc1 (centres undefined) | inconclusive: 23.1 µM [activator, single point]
3 | CC(C)Cc1ccc(C(C)NC(=O)Cc2ccc(S(=O)(=O)N3CCOCC3)s2)cc1 (centres undefined) | inactive
4 | CCSc1nnc(NC(=O)c2cccc3ccccc23)s1 | inactive
5 | COc1ccc2cc3cc(C(=O)N4CCCC(C)C4)oc3nc2c1 (centres undefined) | inactive
6 | CCc1cc2ccc(C)cc2nc1SCC(=O)c1ccc(NC(C)=O)cc1 | inactive
7 | Cc1nc(-c2ccc(NC(=O)CC(C)C)cc2)cs1 | inactive
8 | O=C(Nc1ccccc1)c1cc([N+](=O)[O-])ccc1NCc1cccnc1 | active: 1.3 µM
9 | CCOc1ccc(C2NC(=O)C(C#N)=C(S)N2c2ccc(C)cc2)cc1OC (centres undefined) | inconclusive: 20.6 µM [activator, partial curve, poor fit]
10 | Cc1ccc(C)c(S(=O)(=O)N2CCN(C(=O)CCNC(=O)c3ccc(Br)cc3)CC2)c1 | inactive
11 | COC(=O)C(C(=O)OC)c1ncccc1[N+](=O)[O-] | inactive
12 | CCc1ccc(C(=O)COC(=O)c2ccc(Cl)nc2)cc1 | inactive
13 | N#C/C(=C1/CCCCCN1)c1nc2ccccc2[nH]1 | inactive
14 | Cc1ccc(NC(=O)c2cc3ccccc3oc2=N)cc1 | inconclusive: 5.8 µM [activator, single point]
15 | COc1cc(-c2nc3c4ccccc4nc(=S)n3[nH]2)cc(OC)c1OC | inactive
16 | COc1cccc(-c2cc(C(=O)NCC3CCCO3)c3cc(Br)cc(C)c3n2)c1 (centres undefined) | inactive
17 | Cc1c(Cl)c([N+](=O)[O-])nn1CCCC(=O)Nc1cccc(Cl)c1Cl | inactive
18 | Cc1ccc(-c2cc(C(F)F)n3ncc(C(=O)N4CCCc5ccccc54)c3n2)cc1 | inactive
19 | Cc1ccc(NC(=O)N2CCCc3ccccc32)cc1 | inactive
20 | CC(C)N1CCN(C2CSCCSC2)CC1CCO (centres undefined) | inconclusive: 29.1 µM [activator, single point]
21 | CC1CCCCN1S(=O)(=O)c1ccc(C(=O)N2CCOCC2)cc1 (centres undefined) | inactive
22 | Cc1cc(OCCCn2ccnc2)ccc1[N+](=O)[O-] | inconclusive: 2.31 µM [activator, partial curve, poor fit]
23 | Cc1nnc(NC(=O)CSc2nnc(CNC(=O)c3ccccc3)o2)s1 | inactive
24 | CC(=O)N1CCSc2ccc(S(=O)(=O)N3CCC(C)CC3)cc21 | inconclusive: 0.13 µM [activator, full curve, poor fit]

Ordered by number of heavy atoms (rising): 3 of the compounds above.
Row | SMILES | Potency
24 | CC(=O)N1CCSc2ccc(S(=O)(=O)N3CCC(C)CC3)cc21 | inconclusive: 0.13 µM [activator, full curve, poor fit]
5 | COc1ccc2cc3cc(C(=O)N4CCCC(C)C4)oc3nc2c1 (centres undefined) | inactive
3 | CC(C)Cc1ccc(C(C)NC(=O)Cc2ccc(S(=O)(=O)N3CCOCC3)s2)cc1 (centres undefined) | inactive
